Results published in patent US20110213082 (published 2011).

Assay: general procedure: hybrid (solid and solution phase) peptide synthesis; 2-CTC resin; TBTU or HBTU / 6-Cl-HOBT / DIEA (solid phase); HBTU/HOBt/DIEA (solution phase)
Conditions: purification step, acetate

In the case of (Aib^8, X^17-18, Aib^35) GLP-1(7-36), the “final HPLC purity” value (HPLC (area normalised, AN)) is reported as 98+%, the step yield (run 1) is reported as 90.42% recovery and the step yield (run 2) is reported as 92% recovery. For the same substance, the step yield (run 3) was 74.6% recovery and the step yield (contained/contained) was “˜60%”.
